Source: PubChem BioAssay AID216 (DTP/NCI, 2004)
The list does not hold the whole screen: it gathers tests that were run many times, whatever their T/C, doses with no T/C, and many T/C values between a quarter and a half above the control. Further doses and runs are listed elsewhere. T/C gives the treated animals as a percentage of the vehicle group. Some doses have a count of surviving animals in place of a T/C: the source files T/C as zero there, which appears to mark a toxic dose or a test without result, not a measured value. Some survivor counts are full or nearly so, which does not show that the dose was tolerated: the source hardly ever lists a survival T/C far under the control, and the zero likely stands for such cases as well. Counts of survivors are from the toxicity check (mostly the fifth day) where no day follows; animals may have died later. Schedules are NCI's codes, taken here to give the interval after Q, in days (D) or hours (H), and the number of doses after X. Some schedules carry Z or #; the key to these is not given. Some entries hold several experiments; their values stand side by side, smallest first. For survival time, the PubChem record calls one and a half times the control and up active, and a quarter to a half above the control has no call in these data; cut-offs in other NCI protocols can differ. Some T/C values carry the count of animals alive at the toxicity check (mostly the fifth day); without a count, all were alive then.

Tested on: BDF1 mice, P288 leukemia ip, survival T/C
Assay: NCI In Vivo Anticancer Drug Screen. Data for tumor model P288 Lymphocytic Leukemia (intraperitoneal) in B6D2F1 (BDF1) mice
Details: T/C endpoint: survival time, mean or median, higher T/C = longer survival
Procedure: The antitumor activity of compounds was measured in mice bearing transplantable tumors. Survival or tumor size were measured and the results are expressed as the measurement made in the treated group (T) divided by the measurement made in the vehicle treated control group (C). The tumor model used in this assay is P288 Lymphocytic Leukemia (intraperitoneal) in B6D2F1 (BDF1) mice

[1] = dose: 25.0 mg/kg/injection, schedule: Q01DX Z (ip), vehicle: carboxymethylcellulose (CMC)
[2] = dose: 50.0 mg/kg/injection, schedule: Q01DX Z (ip), vehicle: carboxymethylcellulose (CMC)
[3] = dose: 1.0 mg/kg/injection, schedule: Q01DX010 (ip), vehicle: other
[4] = dose: 10.0 mg/kg/injection, schedule: Q01DX010 (ip), vehicle: saline
[5] = dose: 2.5 mg/kg/injection, schedule: Q01DX010 (ip), vehicle: saline
[6] = dose: 5.0 mg/kg/injection, schedule: Q01DX Z (ip), vehicle: carboxymethylcellulose (CMC)
[7] = dose: 10.0 mg/kg/injection, schedule: Q01DX Z (ip), vehicle: carboxymethylcellulose (CMC)

CSc1ncnc2c1ncn2C1OC(CO)C(O)C1O (stereo not given)
survivor count (dose: 6.25 mg/kg/injection, schedule: Q01DX Z (ip), vehicle: carboxymethylcellulose (CMC)): 6 of 6 | survivor count (dose: 12.5 mg/kg/injection, schedule: Q01DX Z (ip), vehicle: carboxymethylcellulose (CMC)): 4 of 6 | T/C [1]: 128 % of control | survivor count [1]: 6 of 6 | survivor count [2]: 2 of 6

CCN(CCNc1ccc(C)c2sc3cc(Cl)ccc3c(=O)c12)CC(C)O (stereo not given)
T/C (dose: 62.5 mg/kg/injection, schedule: Q01DX010 (ip), vehicle: saline): 125 % of control | T/C (dose: 125.0 mg/kg/injection, schedule: Q01DX010 (ip), vehicle: saline): 125 % of control | survivor count (dose: 500.0 mg/kg/injection, schedule: Q01DX010 (ip), vehicle: saline): 4 of 6

O=[n+]1c2c(n([O-])c3ccccc31)-c1cccc3cccc-2c13
survivor count (dose: 25.0 mg/kg/injection, schedule: Q01DX010 (ip), vehicle: saline): 6 of 6

CN(C)/N=N/c1nc[nH]c1C(N)=O
T/C (dose: 200.0 mg/kg/injection, schedule: Q01DX010 (ip), vehicle: saline): 138 % of control | T/C (dose: 400.0 mg/kg/injection, schedule: Q01DX010 (ip), vehicle: saline): 127 % of control [5 of 6 alive]

Nc1nc(=S)c2[nH]cnc2[nH]1
T/C (dose: 1.0 mg/kg/injection, schedule: Q01DX Z (ip), vehicle: carboxymethylcellulose (CMC)): 125 % of control | T/C (dose: 1.25 mg/kg/injection, schedule: Q01DX010 (ip), vehicle: other): 142 and 147 % of control | T/C (dose: 2.5 mg/kg/injection, schedule: Q01DX010 (ip), vehicle: other): 136 % of control | survivor count (dose: 4.0 mg/kg/injection, schedule: Q01DX Z (ip), vehicle: carboxymethylcellulose (CMC)): 6 of 6 | survivor count (dose: 8.0 mg/kg/injection, schedule: Q01DX Z (ip), vehicle: carboxymethylcellulose (CMC)): 6 of 6 | survivor count (dose: 10.0 mg/kg/injection, schedule: Q01DX010 (ip), vehicle: other): 6 of 6 | survivor count (dose: 16.0 mg/kg/injection, schedule: Q01DX Z (ip), vehicle: carboxymethylcellulose (CMC)): 6 of 6 | survivor count (dose: 32.0 mg/kg/injection, schedule: Q01DX Z (ip), vehicle: carboxymethylcellulose (CMC)): 6 of 6

Nc1nc2n[nH]nc2c(=O)[nH]1
T/C (dose: 25.0 mg/kg/injection, schedule: Q01DX Z (ip), vehicle: other): 149 % of control | T/C (dose: 50.0 mg/kg/injection, schedule: Q01DX010 (ip), vehicle: alkali diluted with saline): 133 % of control | T/C (dose: 50.0 mg/kg/injection, schedule: Q01DX Z (ip), vehicle: other): 141 % of control | survivor count (dose: 100.0 mg/kg/injection, schedule: Q01DX010 (ip), vehicle: alkali diluted with saline): 0 of 6 | T/C (dose: 200.0 mg/kg/injection, schedule: Q01DX010 (ip), vehicle: alkali diluted with saline): 144 % of control | T/C (dose: 400.0 mg/kg/injection, schedule: Q01DX Z (ip), vehicle: other): 131 % of control | survivor count (dose: 800.0 mg/kg/injection, schedule: Q01DX Z (ip), vehicle: alkali diluted with CMC): 1 of 6 | survivor count (dose: 1600.0 mg/kg/injection, schedule: Q01DX Z (ip), vehicle: alkali diluted with CMC): 0 of 6

O=C(Nc1ccc(C2=NCCCN2)cc1)c1ccc(NC(=O)c2ccc(C3=NCCCN3)cc2)cc1
T/C [3]: 133 % of control | T/C (dose: 2.0 mg/kg/injection, schedule: Q01DX010 (ip), vehicle: other): 137 % of control | T/C (dose: 15.6 mg/kg/injection, schedule: Q01DX Z (ip), vehicle: carboxymethylcellulose (CMC)): 141 % of control | survivor count (dose: 16.0 mg/kg/injection, schedule: Q01DX010 (ip), vehicle: other): 6 of 6 | survivor count (dose: 62.5 mg/kg/injection, schedule: Q01DX Z (ip), vehicle: carboxymethylcellulose (CMC)): 0 of 6 | survivor count (dose: 125.0 mg/kg/injection, schedule: Q01DX Z (ip), vehicle: carboxymethylcellulose (CMC)): 0 of 6

O=C(Nc1ccc(C2=NCCCN2)cc1)c1ccc(C(=O)Nc2ccc(C3=NCCCN3)cc2)cc1
T/C (dose: 0.8 mg/kg/injection, schedule: Q01DX Z (ip), vehicle: water): 130 and 136 % of control [5 of 6 alive] | T/C [3]: 136 % of control | survivor count (dose: 6.3 mg/kg/injection, schedule: Q01DX Z (ip), vehicle: water): 1 of 6 | survivor count (dose: 8.0 mg/kg/injection, schedule: Q01DX010 (ip), vehicle: other): 6 of 6

COc1cc2c(c(OC)c1OC)-c1ccc(OC)c(=O)cc1[C@@H](NC(C)=O)CC2
T/C (dose: 0.06 mg/kg/injection, schedule: Q01DX Z (ip), vehicle: saline): 149 % of control | survivor count (dose: 0.25 mg/kg/injection, schedule: Q01DX Z (ip), vehicle: saline): 0 of 6 | survivor count (dose: 0.5 mg/kg/injection, schedule: Q01DX Z (ip), vehicle: saline): 0 of 6

CCOC(=O)c1[nH]c2ccccc2c1CN(CCCl)CCCl
survivor count [4]: 6 of 6 | survivor count (dose: 80.0 mg/kg/injection, schedule: Q01DX010 (ip), vehicle: saline): 1 of 6

O=c1[nH]cc(F)c(=O)[nH]1
T/C [4]: 130 and 137 % of control

[N-]=[N+]=CC(=O)NCC(=O)NN
survivor count (dose: 1000.0 mg/kg/injection, schedule: Q01DX Z (ip), vehicle: other): 2 of 6

C[C@]12CCC(=O)C[C@H]1CC[C@@H]1[C@@H]2CC[C@@]2(C)[C@H]1CC[C@]2(C)O
survivor count (dose: 125.0 mg/kg/injection, schedule: Q01DX Z (sc), vehicle: steroid suspending solution): 6 of 6

Cc1cc2nc3c(=O)[nH]c(=O)nc-3n(CC(O)C(O)C(O)C(O)CO)c2cc1C (stereo not given)
survivor count (dose: 50.0 mg/kg/injection, schedule: Q01DX010 (ip), vehicle: saline): 5 of 6

COS(C)(=O)=O
T/C (dose: 50.0 mg/kg/injection, schedule: Q01DX Z (ip), vehicle: water): 131 % of control | survivor count (dose: 200.0 mg/kg/injection, schedule: Q01DX Z (ip), vehicle: water): 0 of 6

N#[N+]c1cnc([O-])[nH]c1=O
T/C (dose: 1.25 mg/kg/injection, schedule: Q01DX010 (ip), vehicle: saline): 133 % of control | T/C [5]: 135 % of control | T/C (dose: 2.5 mg/kg/injection, schedule: Q01DX Z (ip), vehicle: carboxymethylcellulose (CMC)): 137 % of control | T/C [6]: 144 and 145 % of control | survivor count [6]: 6 of 6 | T/C [4]: 142 % of control | T/C [7]: 127 % of control [5 of 6 alive] | survivor count [7]: 5 of 6 | survivor count (dose: 20.0 mg/kg/injection, schedule: Q01DX Z (ip), vehicle: carboxymethylcellulose (CMC)): 0 of 6 and 1 of 6 | survivor count (dose: 40.0 mg/kg/injection, schedule: Q01DX Z (ip), vehicle: carboxymethylcellulose (CMC)): 0 of 6

S=P(N1CCOCC1)(N1CC1)N1CC1
survivor count (dose: 1.6 mg/kg/injection, schedule: Q01DX Z (ip), vehicle: carboxymethylcellulose (CMC)): 5 of 6 | survivor count [5]: 6 of 6 | survivor count (dose: 5.0 mg/kg/injection, schedule: Q01DX010 (ip), vehicle: saline): 6 of 6 | survivor count [4]: 6 of 6 | survivor count (dose: 20.0 mg/kg/injection, schedule: Q01DX010 (ip), vehicle: saline): 5 of 6 | survivor count [2]: 3 of 6

C[C@H](N)C(=O)N[C@@H]1[C@H]2C(=C(O)C[C@@H](O)[C@@H]2O)C(=O)O[C@@H]1C
T/C (dose: 1200.0 mg/kg/injection, schedule: Q01DX010 (ip), vehicle: saline): 131 % of control
